Laboratory results reported in article PMC2808332.
Results are given in words; binding and its absence hold for the method and conditions named. Binding calls can cover weak binding; strength is not graded here.

Protein sequences, listed by entry. Tags and fused reporters are not part of them. Lines headed by an entry give the natural chain unless they say otherwise; changes in a name come on top.
UniProt Q8WWU5: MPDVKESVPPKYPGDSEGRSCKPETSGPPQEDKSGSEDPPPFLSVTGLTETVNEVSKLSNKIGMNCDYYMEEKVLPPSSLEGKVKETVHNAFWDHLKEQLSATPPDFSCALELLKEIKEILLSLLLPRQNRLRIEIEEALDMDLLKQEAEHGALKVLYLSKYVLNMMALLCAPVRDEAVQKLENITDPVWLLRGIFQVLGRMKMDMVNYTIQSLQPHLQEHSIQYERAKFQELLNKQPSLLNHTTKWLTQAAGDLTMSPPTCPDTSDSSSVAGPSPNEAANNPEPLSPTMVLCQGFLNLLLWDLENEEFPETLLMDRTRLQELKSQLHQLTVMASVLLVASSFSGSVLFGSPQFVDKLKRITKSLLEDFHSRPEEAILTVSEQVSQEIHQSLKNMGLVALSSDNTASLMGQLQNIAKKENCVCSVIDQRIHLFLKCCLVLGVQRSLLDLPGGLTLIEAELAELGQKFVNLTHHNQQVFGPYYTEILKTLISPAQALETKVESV
UniProt Q9BSA4: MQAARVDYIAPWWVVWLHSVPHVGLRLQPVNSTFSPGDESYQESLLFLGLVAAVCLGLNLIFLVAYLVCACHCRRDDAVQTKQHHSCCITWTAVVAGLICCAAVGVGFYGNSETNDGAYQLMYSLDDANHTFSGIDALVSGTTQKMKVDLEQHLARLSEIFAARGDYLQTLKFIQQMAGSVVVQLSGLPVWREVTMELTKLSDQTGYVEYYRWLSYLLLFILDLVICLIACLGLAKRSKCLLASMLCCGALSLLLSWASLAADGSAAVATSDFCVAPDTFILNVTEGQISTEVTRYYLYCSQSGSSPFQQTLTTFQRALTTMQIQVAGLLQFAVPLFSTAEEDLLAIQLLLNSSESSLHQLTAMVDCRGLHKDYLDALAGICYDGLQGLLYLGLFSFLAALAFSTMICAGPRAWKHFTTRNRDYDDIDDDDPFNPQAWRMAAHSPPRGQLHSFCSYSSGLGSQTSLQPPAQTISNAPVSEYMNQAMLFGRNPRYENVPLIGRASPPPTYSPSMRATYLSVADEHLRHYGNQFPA
UniProt P35916: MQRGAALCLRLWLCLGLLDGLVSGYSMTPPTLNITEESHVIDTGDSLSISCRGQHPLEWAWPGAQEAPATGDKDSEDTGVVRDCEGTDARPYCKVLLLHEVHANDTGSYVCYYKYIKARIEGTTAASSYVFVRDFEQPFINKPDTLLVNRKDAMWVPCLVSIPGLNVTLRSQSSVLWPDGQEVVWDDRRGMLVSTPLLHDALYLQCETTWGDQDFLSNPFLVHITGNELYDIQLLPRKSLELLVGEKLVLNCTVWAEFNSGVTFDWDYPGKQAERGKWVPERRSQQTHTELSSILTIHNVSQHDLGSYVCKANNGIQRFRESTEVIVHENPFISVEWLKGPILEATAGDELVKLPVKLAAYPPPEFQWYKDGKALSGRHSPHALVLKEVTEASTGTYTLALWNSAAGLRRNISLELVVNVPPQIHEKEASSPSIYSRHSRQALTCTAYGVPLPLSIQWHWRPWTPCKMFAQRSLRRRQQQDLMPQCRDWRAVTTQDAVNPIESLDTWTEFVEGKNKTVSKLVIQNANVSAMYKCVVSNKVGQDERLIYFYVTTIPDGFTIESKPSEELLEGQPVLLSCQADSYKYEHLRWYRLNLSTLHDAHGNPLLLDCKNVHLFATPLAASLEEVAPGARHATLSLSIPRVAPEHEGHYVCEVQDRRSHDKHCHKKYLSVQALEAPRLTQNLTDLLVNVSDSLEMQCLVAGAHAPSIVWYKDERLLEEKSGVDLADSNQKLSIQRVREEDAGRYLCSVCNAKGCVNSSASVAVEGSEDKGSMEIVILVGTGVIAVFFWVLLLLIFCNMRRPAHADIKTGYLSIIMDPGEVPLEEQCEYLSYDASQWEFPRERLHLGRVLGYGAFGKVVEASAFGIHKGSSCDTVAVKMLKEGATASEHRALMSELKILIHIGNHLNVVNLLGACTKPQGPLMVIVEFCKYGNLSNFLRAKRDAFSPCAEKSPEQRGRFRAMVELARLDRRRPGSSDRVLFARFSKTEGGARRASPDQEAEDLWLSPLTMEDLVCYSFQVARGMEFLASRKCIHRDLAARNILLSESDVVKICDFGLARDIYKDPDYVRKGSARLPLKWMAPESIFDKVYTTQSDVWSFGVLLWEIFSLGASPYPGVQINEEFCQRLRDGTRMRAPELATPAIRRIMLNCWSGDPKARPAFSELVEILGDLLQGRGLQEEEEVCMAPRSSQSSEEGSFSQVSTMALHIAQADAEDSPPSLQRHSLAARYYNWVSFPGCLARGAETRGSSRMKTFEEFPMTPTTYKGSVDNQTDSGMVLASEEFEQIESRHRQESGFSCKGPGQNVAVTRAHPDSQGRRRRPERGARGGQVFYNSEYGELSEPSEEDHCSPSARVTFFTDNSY
UniProt P08922: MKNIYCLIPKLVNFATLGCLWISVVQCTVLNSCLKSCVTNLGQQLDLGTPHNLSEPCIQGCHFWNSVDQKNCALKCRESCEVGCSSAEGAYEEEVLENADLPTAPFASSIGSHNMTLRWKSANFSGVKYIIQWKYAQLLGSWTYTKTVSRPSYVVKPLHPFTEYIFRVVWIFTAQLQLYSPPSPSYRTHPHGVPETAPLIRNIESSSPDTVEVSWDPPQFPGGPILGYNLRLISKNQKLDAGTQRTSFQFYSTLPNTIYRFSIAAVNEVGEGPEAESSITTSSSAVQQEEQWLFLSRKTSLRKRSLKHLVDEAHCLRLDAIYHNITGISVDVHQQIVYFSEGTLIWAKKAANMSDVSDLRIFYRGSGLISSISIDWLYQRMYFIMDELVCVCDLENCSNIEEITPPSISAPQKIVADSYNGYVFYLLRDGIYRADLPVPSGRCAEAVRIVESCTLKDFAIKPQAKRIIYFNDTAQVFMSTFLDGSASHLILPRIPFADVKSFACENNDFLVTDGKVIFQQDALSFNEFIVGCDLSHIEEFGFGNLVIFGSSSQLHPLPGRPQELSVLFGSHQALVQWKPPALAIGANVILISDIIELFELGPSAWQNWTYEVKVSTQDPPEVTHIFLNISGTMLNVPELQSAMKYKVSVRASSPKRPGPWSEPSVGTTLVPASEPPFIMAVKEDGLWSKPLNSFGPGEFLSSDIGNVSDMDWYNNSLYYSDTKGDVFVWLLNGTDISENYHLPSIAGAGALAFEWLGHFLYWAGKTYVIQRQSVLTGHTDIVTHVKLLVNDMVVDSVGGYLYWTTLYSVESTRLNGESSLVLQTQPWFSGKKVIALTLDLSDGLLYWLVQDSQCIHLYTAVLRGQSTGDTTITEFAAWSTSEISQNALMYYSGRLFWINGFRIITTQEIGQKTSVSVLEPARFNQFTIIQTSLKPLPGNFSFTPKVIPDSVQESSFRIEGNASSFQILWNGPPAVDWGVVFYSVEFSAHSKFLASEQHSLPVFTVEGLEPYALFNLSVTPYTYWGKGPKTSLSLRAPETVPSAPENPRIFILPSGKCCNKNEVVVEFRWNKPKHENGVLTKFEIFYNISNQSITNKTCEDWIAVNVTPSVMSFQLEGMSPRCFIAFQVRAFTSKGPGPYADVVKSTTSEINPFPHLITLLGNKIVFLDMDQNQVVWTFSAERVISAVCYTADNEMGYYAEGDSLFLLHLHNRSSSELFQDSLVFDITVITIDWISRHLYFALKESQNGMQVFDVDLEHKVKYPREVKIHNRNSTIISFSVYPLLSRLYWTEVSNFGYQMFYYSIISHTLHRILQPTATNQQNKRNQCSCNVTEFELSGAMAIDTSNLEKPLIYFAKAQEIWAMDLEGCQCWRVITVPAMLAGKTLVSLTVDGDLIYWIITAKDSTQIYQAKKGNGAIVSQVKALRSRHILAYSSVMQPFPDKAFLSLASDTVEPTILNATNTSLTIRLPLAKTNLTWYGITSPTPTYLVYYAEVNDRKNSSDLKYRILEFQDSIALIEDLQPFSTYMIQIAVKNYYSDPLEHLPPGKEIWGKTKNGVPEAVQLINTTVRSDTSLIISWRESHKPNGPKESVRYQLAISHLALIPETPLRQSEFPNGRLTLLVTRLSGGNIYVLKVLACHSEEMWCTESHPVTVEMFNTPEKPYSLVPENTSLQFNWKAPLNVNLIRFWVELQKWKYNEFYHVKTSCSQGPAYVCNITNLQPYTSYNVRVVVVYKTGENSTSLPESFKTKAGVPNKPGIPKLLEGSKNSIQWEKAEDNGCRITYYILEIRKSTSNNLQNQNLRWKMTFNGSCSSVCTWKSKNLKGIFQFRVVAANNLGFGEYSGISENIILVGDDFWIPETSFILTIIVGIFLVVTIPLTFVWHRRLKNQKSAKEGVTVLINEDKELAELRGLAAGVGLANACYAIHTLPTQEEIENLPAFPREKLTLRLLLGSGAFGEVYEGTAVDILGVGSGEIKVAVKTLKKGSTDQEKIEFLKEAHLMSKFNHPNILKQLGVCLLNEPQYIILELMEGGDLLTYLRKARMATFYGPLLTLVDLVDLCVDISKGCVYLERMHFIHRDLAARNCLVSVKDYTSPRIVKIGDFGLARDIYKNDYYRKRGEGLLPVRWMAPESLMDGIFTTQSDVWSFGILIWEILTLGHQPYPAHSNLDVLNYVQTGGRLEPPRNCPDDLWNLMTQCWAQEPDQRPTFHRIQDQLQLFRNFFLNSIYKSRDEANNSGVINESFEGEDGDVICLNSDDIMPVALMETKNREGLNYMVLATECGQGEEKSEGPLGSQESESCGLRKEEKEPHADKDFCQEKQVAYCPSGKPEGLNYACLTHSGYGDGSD
UniProt Q02763: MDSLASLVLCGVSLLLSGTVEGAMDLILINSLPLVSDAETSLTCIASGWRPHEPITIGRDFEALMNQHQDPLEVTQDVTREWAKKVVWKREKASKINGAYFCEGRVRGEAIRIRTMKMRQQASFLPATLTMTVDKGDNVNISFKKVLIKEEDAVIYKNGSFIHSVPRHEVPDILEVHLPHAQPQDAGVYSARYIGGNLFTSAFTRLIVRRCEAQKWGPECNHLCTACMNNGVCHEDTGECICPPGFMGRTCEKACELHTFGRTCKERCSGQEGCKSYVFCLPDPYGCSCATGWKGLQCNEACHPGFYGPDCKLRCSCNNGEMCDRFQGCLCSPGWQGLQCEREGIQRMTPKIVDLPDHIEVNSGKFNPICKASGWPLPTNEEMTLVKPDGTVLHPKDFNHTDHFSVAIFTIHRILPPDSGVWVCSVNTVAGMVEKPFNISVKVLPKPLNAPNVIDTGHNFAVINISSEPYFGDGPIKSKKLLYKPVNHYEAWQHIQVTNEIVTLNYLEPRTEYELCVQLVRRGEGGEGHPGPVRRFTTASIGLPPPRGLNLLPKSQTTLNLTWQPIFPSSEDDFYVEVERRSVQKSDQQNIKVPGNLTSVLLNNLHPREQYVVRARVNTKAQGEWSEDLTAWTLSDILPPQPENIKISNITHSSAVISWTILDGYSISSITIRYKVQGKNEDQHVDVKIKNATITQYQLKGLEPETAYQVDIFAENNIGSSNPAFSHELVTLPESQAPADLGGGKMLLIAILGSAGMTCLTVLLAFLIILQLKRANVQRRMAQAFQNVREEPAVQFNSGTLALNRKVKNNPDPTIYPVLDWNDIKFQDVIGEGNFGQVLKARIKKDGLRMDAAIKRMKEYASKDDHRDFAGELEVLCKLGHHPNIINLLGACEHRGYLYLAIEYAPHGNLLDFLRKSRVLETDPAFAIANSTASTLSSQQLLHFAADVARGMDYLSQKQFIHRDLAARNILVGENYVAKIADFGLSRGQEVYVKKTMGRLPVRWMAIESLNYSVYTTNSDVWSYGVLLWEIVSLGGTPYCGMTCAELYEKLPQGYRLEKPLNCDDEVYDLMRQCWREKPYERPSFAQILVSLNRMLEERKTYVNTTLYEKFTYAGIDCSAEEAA
UniProt P21579: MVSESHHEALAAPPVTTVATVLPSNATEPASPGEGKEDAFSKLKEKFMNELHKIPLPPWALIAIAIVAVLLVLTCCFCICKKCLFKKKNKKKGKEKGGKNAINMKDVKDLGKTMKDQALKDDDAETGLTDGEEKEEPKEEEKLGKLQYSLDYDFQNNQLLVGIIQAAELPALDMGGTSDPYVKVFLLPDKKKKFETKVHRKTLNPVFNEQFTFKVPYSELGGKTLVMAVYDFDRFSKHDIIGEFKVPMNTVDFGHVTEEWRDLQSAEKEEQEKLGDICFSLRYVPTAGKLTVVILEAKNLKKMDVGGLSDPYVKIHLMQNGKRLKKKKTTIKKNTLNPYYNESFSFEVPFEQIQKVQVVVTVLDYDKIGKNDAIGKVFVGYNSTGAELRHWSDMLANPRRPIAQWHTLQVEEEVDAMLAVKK

Legend:
Assay in all cases: peptide or protein array; Invitrogen Protoarray v4.0, about 8,400 human proteins spotted on nitrocellulose-coated glass slides; 10 µg biotinylated tag-free NEMO in 120 µl probing buffer (PBS, 0.5 mM DTT, 5 mM MgCl2, 5% glycerol, 0.05% Triton X-100), 4°C, 1.5 h; bound NEMO detected with labelled streptavidin; hits Z-score > 3, hits of the biotin-GST control array subtracted; both purified
[1] = target: RET proto-oncogene (human) (UniProt P07949)
[2] = target: t-complex 11 (mouse) (human) (UniProt Q8WWU5)
[3] = target: Receptor tyrosine kinase-like orphan receptor 2 (human) (UniProt Q01974)
Tweety homolog 2 (human) = Tweety homolog 2 (human) (UniProt Q9BSA4)
[4] = target: FMS-related tyrosine kinase 4 (human) (UniProt P35916)
c-Ros oncogene 1 (human) = c-Ros oncogene 1 (human) (UniProt P08922)
[5] = target: TYRO3 protein tyrosine kinase (human) (UniProt Q06418)
[6] = target: TEK tyrosine kinase (human) (UniProt Q02763)
[7] = target: c-Mer proto-oncogene tyrosine kinase (human) (UniProt Q12866)
Synaptotagmin I (human) = Synaptotagmin I (human) (UniProt P21579)
[8] = target: Ephrin receptor A4 (human) (UniProt P54764)
[9] = target: FMS-related tyrosine kinase 3 (D835Y mutant) (human) (UniProt P36888)
[10] = target: Anaplastic lymphoma receptor tyrosine kinase (human) (UniProt Q9UM73)
[11] = target: FMS-related tyrosine kinase 3 (human) (UniProt P36888)

binding [1]: binds
binding [2]: binds
binding [3]: binds
binding (Tweety homolog 2 (human)): binds
binding [4]: binds
binding (c-Ros oncogene 1 (human)): binds
binding [5]: binds
binding [6]: binds
binding [7]: binds
binding (Synaptotagmin I (human)): binds
binding [8]: binds
binding [9]: binds
binding [10]: binds
binding [11]: binds
Substance: NEMO (NF-κB essential modulator), tag-free, biotinylated (from UniProt Q9Y6K9 1-419)
